# Test results from the supplement of paper PMC10849652.
# Sequences of proteins named here, by UniProt entry; tags and fusion partners are left off. A change or cut given only in a name is not applied to a line headed by its entry.
# UniProt Q9HCC9: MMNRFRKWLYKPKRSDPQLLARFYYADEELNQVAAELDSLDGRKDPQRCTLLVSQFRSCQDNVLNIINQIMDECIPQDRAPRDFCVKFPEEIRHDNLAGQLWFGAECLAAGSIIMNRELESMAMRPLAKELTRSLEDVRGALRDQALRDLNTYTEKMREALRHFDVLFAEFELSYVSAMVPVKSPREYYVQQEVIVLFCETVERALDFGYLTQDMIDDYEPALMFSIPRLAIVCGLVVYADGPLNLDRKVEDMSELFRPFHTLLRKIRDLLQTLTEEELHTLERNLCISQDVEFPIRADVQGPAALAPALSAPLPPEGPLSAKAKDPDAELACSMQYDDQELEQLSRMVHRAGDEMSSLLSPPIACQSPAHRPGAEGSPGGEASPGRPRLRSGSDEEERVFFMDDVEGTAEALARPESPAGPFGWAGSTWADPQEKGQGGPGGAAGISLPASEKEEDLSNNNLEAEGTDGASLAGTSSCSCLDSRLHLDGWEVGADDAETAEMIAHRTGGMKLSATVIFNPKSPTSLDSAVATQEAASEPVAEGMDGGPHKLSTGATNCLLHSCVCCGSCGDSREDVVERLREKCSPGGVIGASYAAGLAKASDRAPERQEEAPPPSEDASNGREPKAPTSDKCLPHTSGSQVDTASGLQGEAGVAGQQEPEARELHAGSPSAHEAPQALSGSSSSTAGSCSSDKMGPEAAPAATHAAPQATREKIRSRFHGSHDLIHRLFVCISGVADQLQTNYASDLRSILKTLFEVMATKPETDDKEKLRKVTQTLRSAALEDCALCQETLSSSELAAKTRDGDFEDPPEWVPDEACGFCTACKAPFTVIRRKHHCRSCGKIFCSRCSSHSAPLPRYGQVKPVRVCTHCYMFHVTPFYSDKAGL
# UniProt Q96K21: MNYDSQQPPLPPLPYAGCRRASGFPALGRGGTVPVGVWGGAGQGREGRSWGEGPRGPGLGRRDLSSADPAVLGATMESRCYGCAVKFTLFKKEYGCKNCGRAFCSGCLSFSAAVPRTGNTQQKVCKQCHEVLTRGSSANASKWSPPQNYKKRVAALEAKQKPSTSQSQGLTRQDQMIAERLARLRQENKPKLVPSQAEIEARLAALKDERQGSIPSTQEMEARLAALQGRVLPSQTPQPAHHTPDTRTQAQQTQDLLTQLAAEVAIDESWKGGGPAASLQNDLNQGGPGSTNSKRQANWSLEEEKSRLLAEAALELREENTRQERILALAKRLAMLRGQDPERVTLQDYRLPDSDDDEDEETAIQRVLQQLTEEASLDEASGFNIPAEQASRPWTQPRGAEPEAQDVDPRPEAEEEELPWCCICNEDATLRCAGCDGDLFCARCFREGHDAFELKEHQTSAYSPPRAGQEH
# UniProt P31946: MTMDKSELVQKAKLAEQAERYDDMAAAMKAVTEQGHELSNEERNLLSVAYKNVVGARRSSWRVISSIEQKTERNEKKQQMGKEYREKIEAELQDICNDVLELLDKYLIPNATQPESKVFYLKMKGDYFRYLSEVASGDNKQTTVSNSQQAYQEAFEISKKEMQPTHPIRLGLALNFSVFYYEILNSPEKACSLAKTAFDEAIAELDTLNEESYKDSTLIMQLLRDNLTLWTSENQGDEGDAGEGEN
# UniProt Q8IX07: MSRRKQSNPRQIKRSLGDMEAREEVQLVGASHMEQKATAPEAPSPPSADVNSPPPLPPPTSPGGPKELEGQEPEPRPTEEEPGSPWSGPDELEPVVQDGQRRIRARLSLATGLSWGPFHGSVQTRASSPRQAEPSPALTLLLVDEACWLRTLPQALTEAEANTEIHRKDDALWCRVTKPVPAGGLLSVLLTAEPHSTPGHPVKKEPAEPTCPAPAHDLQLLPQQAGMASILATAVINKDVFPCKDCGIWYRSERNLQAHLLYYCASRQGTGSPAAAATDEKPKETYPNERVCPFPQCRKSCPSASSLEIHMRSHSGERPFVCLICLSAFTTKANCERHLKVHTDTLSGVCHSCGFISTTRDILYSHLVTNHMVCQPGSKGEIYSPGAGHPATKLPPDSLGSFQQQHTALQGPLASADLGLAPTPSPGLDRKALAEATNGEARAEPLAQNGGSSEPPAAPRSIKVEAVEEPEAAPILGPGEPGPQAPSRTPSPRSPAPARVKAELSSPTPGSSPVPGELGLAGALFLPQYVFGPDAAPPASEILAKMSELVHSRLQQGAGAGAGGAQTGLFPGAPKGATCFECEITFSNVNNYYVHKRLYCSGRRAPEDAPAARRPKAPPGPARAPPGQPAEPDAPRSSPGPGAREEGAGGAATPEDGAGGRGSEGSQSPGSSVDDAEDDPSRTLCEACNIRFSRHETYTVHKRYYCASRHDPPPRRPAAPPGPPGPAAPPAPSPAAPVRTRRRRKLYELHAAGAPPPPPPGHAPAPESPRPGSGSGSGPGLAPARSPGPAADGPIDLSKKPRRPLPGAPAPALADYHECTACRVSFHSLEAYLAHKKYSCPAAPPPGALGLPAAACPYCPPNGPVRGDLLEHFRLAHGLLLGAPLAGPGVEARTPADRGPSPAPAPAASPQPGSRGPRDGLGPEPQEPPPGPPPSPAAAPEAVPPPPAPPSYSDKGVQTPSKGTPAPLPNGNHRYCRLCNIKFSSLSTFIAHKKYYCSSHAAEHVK
# UniProt Q6NZY4: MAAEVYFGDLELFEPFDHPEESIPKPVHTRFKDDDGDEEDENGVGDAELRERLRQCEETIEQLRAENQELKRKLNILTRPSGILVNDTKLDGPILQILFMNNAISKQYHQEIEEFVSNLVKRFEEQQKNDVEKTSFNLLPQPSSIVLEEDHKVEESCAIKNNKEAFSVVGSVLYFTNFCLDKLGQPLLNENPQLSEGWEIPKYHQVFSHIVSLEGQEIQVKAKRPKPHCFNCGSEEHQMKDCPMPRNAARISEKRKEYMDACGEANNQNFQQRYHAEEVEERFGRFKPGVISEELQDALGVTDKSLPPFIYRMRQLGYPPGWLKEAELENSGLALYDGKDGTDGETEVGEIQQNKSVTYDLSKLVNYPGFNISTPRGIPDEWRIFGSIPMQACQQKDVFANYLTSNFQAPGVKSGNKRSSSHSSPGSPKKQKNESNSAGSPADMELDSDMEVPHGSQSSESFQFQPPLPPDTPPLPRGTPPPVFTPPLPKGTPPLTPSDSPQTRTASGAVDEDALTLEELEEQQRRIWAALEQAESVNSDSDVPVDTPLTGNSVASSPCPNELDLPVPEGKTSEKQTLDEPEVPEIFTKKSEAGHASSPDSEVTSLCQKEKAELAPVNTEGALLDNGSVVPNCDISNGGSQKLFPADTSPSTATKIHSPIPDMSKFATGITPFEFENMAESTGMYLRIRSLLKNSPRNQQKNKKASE
# UniProt Q9Y5A9: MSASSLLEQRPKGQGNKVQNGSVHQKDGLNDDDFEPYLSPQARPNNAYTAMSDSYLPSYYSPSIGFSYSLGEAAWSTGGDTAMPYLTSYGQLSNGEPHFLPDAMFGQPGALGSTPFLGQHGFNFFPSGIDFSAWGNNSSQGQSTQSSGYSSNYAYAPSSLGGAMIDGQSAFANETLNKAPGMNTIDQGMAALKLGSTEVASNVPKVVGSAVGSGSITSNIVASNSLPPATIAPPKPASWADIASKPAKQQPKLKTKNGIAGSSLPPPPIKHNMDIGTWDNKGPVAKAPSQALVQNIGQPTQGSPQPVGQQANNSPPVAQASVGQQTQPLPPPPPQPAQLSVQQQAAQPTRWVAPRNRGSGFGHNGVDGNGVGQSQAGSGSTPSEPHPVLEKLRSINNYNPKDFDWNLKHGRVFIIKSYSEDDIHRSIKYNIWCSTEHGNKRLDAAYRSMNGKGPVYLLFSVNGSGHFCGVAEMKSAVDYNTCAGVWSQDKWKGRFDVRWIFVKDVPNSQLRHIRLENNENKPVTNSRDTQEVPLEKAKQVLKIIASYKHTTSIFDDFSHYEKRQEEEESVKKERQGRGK
# UniProt Q96DA0: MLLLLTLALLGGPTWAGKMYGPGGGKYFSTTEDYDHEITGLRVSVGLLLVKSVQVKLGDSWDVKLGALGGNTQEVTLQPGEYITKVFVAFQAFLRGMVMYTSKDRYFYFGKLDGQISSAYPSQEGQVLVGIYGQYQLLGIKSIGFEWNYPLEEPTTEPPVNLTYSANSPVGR
# UniProt Q9GZM5: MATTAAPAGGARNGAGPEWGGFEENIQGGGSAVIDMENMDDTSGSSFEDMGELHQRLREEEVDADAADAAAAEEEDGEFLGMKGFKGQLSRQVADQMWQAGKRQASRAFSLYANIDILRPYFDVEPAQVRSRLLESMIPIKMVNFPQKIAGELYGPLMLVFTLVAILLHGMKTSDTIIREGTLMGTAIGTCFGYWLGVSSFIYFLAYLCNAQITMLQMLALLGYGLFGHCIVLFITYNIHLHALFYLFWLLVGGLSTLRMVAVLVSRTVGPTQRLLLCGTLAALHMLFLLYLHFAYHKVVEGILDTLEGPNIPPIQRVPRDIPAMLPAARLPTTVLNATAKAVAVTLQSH
# UniProt Q8NBI6: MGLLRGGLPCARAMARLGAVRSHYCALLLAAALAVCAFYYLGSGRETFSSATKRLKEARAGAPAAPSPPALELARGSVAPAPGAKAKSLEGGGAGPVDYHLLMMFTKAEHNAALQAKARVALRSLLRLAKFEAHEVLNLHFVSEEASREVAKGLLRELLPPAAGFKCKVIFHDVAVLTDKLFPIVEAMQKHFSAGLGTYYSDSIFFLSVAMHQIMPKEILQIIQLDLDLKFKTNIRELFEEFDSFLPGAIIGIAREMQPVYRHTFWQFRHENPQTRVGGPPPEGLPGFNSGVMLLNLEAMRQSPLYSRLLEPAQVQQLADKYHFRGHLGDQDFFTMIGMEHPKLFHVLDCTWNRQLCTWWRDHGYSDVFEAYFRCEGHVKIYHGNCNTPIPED
# UniProt Q5T4F4: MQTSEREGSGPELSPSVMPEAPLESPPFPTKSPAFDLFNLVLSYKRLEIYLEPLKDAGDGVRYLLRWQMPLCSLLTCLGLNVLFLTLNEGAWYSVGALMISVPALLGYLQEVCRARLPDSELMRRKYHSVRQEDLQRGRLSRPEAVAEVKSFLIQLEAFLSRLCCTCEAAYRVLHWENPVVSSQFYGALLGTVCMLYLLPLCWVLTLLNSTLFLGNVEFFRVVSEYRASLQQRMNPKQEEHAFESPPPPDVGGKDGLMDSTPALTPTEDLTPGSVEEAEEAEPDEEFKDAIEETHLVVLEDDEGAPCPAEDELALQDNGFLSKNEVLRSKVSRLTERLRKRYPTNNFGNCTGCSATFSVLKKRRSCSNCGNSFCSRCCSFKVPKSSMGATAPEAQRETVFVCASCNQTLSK
# UniProt Q8TBF4: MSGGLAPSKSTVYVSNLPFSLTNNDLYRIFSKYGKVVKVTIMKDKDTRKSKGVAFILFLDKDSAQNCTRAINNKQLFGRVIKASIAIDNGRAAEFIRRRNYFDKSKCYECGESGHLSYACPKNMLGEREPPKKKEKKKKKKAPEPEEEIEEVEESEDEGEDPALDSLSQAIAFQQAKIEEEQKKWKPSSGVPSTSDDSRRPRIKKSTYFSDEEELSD
# UniProt Q9NPG8: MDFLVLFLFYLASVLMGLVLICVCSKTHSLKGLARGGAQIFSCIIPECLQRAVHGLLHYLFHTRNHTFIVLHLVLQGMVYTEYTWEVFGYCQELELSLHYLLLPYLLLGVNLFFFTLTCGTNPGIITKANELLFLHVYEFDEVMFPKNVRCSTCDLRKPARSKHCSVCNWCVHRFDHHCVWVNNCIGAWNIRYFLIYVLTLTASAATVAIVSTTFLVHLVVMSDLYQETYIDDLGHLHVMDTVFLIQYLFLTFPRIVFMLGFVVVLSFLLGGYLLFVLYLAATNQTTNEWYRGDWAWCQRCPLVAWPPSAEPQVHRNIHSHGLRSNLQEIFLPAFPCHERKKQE
# UniProt Q13105: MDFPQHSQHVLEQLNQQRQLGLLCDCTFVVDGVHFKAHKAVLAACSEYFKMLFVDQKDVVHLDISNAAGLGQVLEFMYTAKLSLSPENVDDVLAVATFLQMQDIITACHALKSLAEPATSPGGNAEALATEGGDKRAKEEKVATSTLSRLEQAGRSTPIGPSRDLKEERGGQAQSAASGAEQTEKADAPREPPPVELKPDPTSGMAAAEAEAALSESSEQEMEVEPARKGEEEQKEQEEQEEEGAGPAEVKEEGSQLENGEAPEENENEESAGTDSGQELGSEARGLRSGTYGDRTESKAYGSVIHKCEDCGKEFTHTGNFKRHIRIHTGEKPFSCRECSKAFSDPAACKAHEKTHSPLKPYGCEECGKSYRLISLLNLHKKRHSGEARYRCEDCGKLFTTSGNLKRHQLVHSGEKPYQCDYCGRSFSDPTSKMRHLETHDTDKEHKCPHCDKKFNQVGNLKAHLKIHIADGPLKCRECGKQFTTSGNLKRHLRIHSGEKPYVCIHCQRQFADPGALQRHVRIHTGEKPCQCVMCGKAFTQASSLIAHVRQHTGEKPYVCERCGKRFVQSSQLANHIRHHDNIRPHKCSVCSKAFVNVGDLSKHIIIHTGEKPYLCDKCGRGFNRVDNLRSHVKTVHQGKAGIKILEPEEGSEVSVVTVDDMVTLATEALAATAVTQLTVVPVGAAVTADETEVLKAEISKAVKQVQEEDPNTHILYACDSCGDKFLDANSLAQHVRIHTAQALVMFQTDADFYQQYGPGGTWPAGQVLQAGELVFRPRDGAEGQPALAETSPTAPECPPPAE
# The list shows a part of the results.
# Tests used:
# Experiment in all cases: log2 fold change, soluble protein after heating vs DMSO (PISA); higher = thermal stabilisation; K562 lysate, 10 uM; active = over 0.2 and 3.5 SD of the protein, either way, in both replicates (recomputed)
# lapatinib = compound: CS(=O)(=O)CCNCc1ccc(-c2ccc3ncnc(Nc4ccc(OCc5cccc(F)c5)c(Cl)c4)c3c2)o1 [lapatinib]
# Outline: (§1)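 To prepare the extract, K562 pellets were dounce-homogenised in PBS pH 7.4 with 1 mM MgCl2, giving crude material at 1 mg/mL protein. This was treated with 10 μM compound for 30 min, then heated in aliquots for 3 min over 48°C-58°C before pooling and addition of NP-40 to 0.5% at 4°C. Centrifugation at 21,000xg for 90 min left soluble protein in the supernatant, which TMTpro 16plex LC-MS/MS quantified with equalised channel sums. Results are log-two fold changes in thermal stability compared with solvent controls, from duplicates.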
# pictilisib = compound: CS(=O)(=O)N1CCN(Cc2cc3nc(-c4cccc5[nH]ncc45)nc(N4CCOCC4)c3s2)CC1 [pictilisib]
# Outline: as §1
# crizotinib = compound: C[C@@H](Oc1cc(-c2cnn(C3CCNCC3)c2)cnc1N)c1c(Cl)ccc(F)c1Cl [crizotinib]
# Outline: as §1
# [1] = compound: C[C@H](C1=CC=C(C=C1)C(=O)NC2=C3C=CNC3=NC=C2)N
# Outline: as §1
# duvelisib = compound: C[C@H](Nc1ncnc2nc[nH]c12)c1cc2cccc(Cl)c2c(=O)n1-c1ccccc1 [duvelisib]
# Outline: as §1
# gandotinib = compound: Cc1cc(Nc2cc(CN3CCOCC3)c3nc(C)c(Cc4ccc(Cl)cc4F)n3n2)n[nH]1 [gandotinib]
# Outline: as §1
# tozasertib = compound: Cc1cc(Nc2cc(N3CCN(C)CC3)nc(Sc3ccc(NC(=O)C4CC4)cc3)n2)n[nH]1 [tozasertib]
# Outline: as §1
# doramapimod = compound: Cc1ccc(-n2nc(C(C)(C)C)cc2NC(=O)Nc2ccc(OCCN3CCOCC3)c3ccccc23)cc1 [doramapimod]
# Outline: as §1
# bafetinib = compound: Cc1ccc(NC(=O)c2ccc(CN3CC[C@H](N(C)C)C3)c(C(F)(F)F)c2)cc1Nc1nccc(-c2cncnc2)n1 [bafetinib]
# Outline: as §1
# [2] = compound: Cc1cccc(CC(=O)N2CCc3c2ccc(-c2cn(C)c4ncnc(N)c24)c3F)n1
# Outline: as §1
Target,log2 fold change (lapatinib),log2 fold change (pictilisib),log2 fold change (crizotinib),log2 fold change [1],log2 fold change (duvelisib),log2 fold change (gandotinib),log2 fold change (tozasertib),log2 fold change (doramapimod),log2 fold change (bafetinib),log2 fold change [2]
ZFYVE28 (UniProt Q9HCC9),inactive: -0.137,inactive: 0.064,inactive: -0.012,inactive: 0.006,inactive: 0.105,inactive: -0.024,inactive: 0.019,inactive: -0.107,inactive: 0.022,inactive: 0.006
ZBTB7A (UniProt O95365),inactive: -0.155,inactive: 0.022,inactive: -0.236,inactive: -0.084,inactive: 0.014,inactive: 0.045,inactive: 0.236,inactive: 0.043,inactive: 0.165,inactive: 0.004
ZFYVE19 (UniProt Q96K21),inactive: 0.042,inactive: 0.017,inactive: 0.007,inactive: -0.125,inactive: -0.005,inactive: 0.085,inactive: 0.046,inactive: -0.029,inactive: 0,inactive: 0.149
YTHDC1 (UniProt Q96MU7),inactive: -0.084,inactive: 0.061,inactive: 0.005,inactive: 0.048,inactive: 0.068,inactive: 0.136,inactive: 0.19,inactive: -0.043,inactive: -0.012,inactive: 0.148
YIF1A (UniProt O95070),inactive: -0.036,inactive: 0.128,inactive: 0.017,inactive: 0.023,inactive: 0.034,inactive: 0.061,inactive: -0.022,inactive: -0.051,inactive: -0.066,inactive: -0.005
ZBTB33 (UniProt Q86T24),inactive: 0.047,inactive: 0.149,inactive: -0.111,inactive: -0.165,inactive: -0.041,inactive: 0.028,inactive: 0.048,inactive: 0.022,inactive: 0.046,inactive: 0.048
YWHAB (UniProt P31946),inactive: 0.005,inactive: 0.052,inactive: 0.032,inactive: 0.233,inactive: -0.013,inactive: -0.041,inactive: 0.002,inactive: -0.049,inactive: 0.069,inactive: -0.084
ZC3H15 (UniProt Q8WU90),inactive: -0.006,inactive: 0.027,inactive: -0.007,inactive: -0.057,inactive: 0.019,inactive: 0.06,inactive: -0.022,inactive: 0.045,inactive: -0.005,inactive: 0.021
ZFPM1 (UniProt Q8IX07),inactive: -0.003,inactive: -0.008,inactive: -0.135,inactive: 0.009,inactive: 0.001,inactive: -0.079,inactive: -0.118,inactive: 0.023,inactive: -0.077,inactive: -0.018
ZCCHC8 (UniProt Q6NZY4),inactive: 0.009,inactive: 0.005,inactive: 0,inactive: 0.019,inactive: 0.018,inactive: 0.013,inactive: -0.029,inactive: -0.003,inactive: -0.009,inactive: -0.031
YTHDF2 (UniProt Q9Y5A9),inactive: -0.025,inactive: 0.057,inactive: 0.035,inactive: 0.095,inactive: -0.057,inactive: 0.017,inactive: 0.011,inactive: 0.028,inactive: -0.058,inactive: -0.062
ZG16B (UniProt Q96DA0),inactive: 0.232,inactive: 0.254,inactive: 1.37,inactive: 0.346,,inactive: 0.057,inactive: 1.8,inactive: 0.048,inactive: 0.215,inactive: 0.763
YIPF3 (UniProt Q9GZM5),inactive: -0.021,inactive: -0.016,inactive: 0.038,inactive: -0.09,inactive: 0.033,inactive: 0.017,inactive: -0.002,inactive: -0.011,inactive: -0.034,inactive: 0.092
YDJC (UniProt A8MPS7),inactive: -0.003,inactive: -0.016,inactive: 0.022,inactive: -0.031,inactive: -0.044,inactive: 0.02,inactive: 0.022,inactive: 0.025,inactive: -0.017,inactive: -0.033
ZFP64 isoform 5 (UniProt Q9NTW7),inactive: -0.242,inactive: 0.056,inactive: 0.089,inactive: -0.346,,inactive: 0.01,inactive: 0.212,inactive: 0.061,inactive: 0.06,inactive: 0.065
ZEB1 isoform 2 (UniProt P37275),inactive: 0.05,inactive: -0.003,inactive: -0.11,inactive: 0.042,inactive: 0.027,inactive: 0.116,,inactive: 0.063,inactive: 0.042,inactive: 0.037
XXYLT1 (UniProt Q8NBI6),inactive: -0.045,inactive: -0.038,inactive: -0.036,inactive: 0,inactive: 0.034,inactive: -0.023,inactive: -0.02,inactive: -0.03,inactive: -0.051,inactive: 0.044

# For reference, part of the list above:
Target,log2 fold change (lapatinib),log2 fold change (pictilisib),log2 fold change (crizotinib),log2 fold change [1],log2 fold change (duvelisib),log2 fold change (gandotinib),log2 fold change (tozasertib),log2 fold change (doramapimod),log2 fold change (bafetinib),log2 fold change [2]
ZBTB7A (UniProt O95365),inactive: -0.155,inactive: 0.022,inactive: -0.236,inactive: -0.084,inactive: 0.014,inactive: 0.045,inactive: 0.236,inactive: 0.043,inactive: 0.165,inactive: 0.004
ZFYVE19 (UniProt Q96K21),inactive: 0.042,inactive: 0.017,inactive: 0.007,inactive: -0.125,inactive: -0.005,inactive: 0.085,inactive: 0.046,inactive: -0.029,inactive: 0,inactive: 0.149

# Remaining list, next part.

Target,log2 fold change (lapatinib),log2 fold change (pictilisib),log2 fold change (crizotinib),log2 fold change [1],log2 fold change (duvelisib),log2 fold change (gandotinib),log2 fold change (tozasertib),log2 fold change (doramapimod),log2 fold change (bafetinib),log2 fold change [2]
ZADH2 (UniProt Q8N4Q0),inactive: -0.231,inactive: -0.028,inactive: -0.057,inactive: -0.163,inactive: 0.1,inactive: 0.014,,inactive: -0.052,inactive: -0.118,inactive: 0.097
YTHDC2 (UniProt Q9H6S0),inactive: -0.029,inactive: -0.007,inactive: -0.042,inactive: 0.023,inactive: 0.032,inactive: -0.013,inactive: -0.03,inactive: 0.007,inactive: -0.022,inactive: -0.066
ZFAND6 (UniProt Q6FIF0),inactive: 0.027,inactive: 0.018,inactive: -0.051,inactive: -0.096,inactive: 0.008,inactive: 0.033,inactive: -0.037,inactive: 0.062,inactive: 0.004,inactive: 0.005
ZBTB40 (UniProt Q9NUA8),inactive: 0.022,,inactive: 0.036,inactive: -0.249,inactive: 0.018,inactive: 0.219,,inactive: -0.02,,inactive: 0.004
YWHAZ (UniProt P63104),inactive: 0.014,inactive: 0.035,inactive: 0.009,inactive: -0.013,inactive: 0.021,inactive: 0.01,inactive: -0.013,inactive: 0.022,inactive: 0.074,inactive: -0.009
ZFHX4 isoform 5 (UniProt Q86UP3),inactive: -0.376,inactive: 0.072,inactive: -0.001,,,,,inactive: -0.281,inactive: -0.111,
ZFYVE27 isoform 2 (UniProt Q5T4F4),inactive: 0.005,inactive: -0.028,inactive: -0.075,,inactive: 0.047,,inactive: 0.027,inactive: -0.022,inactive: -0.047,
ZCCHC9 (UniProt Q8N567),inactive: -0.102,inactive: 0.076,inactive: -0.075,,inactive: 0.034,,inactive: 0.016,inactive: -0.039,inactive: 0.027,
ZDHHC17 (UniProt Q8IUH5),inactive: 0.042,,inactive: 0.098,active: -0.778,inactive: -0.301,inactive: 0.037,inactive: -0.025,inactive: 0.11,,inactive: 0.17
ZFYVE26 (UniProt Q68DK2),inactive: -0.246,inactive: -0.189,inactive: -0.413,,,,,inactive: -0.036,inactive: -0.035,
XPNPEP3 (UniProt Q9NQH7),inactive: -0.013,inactive: 0,inactive: 0,inactive: -0.026,inactive: -0.02,inactive: 0.042,inactive: -0.056,inactive: -0.071,inactive: -0.001,inactive: -0.049
ZCRB1 (UniProt Q8TBF4),inactive: -0.014,,inactive: 0.075,inactive: 0.003,inactive: 0.064,inactive: 0.099,,inactive: -0.135,,inactive: -0.056
ZBED8 (UniProt Q8IZ13),inactive: -0.026,inactive: 0.049,inactive: -0.037,,inactive: 0.048,,inactive: -0.224,inactive: -0.023,inactive: -0.019,
ZDHHC4 (UniProt Q9NPG8),inactive: 0.201,inactive: 0.045,inactive: 0.036,inactive: -0.081,inactive: -0.131,inactive: -0.053,,inactive: -0.032,inactive: 0.074,inactive: -0.17
YIPF1 (UniProt Q9Y548),inactive: 0.101,inactive: 0.059,inactive: 0.009,,inactive: -0.129,,,inactive: -0.021,inactive: -0.056,
ZBTB17 isoform 2 (UniProt Q13105),inactive: -0.085,inactive: -0.037,inactive: -0.113,,inactive: -0.038,,,inactive: -0.073,inactive: -0.2,
XRN2 (UniProt Q9H0D6),inactive: -0.003,inactive: -0.014,inactive: 0.03,inactive: -0.017,inactive: -0.043,inactive: 0.014,inactive: -0.043,inactive: 0.042,inactive: 0.007,inactive: -0.017
